The list shows a part of the results.
Tests used:
Experiment in all cases: log2 fold change, soluble protein after heating vs DMSO (PISA); higher = thermal stabilisation; K562 cells, 10 uM, 30 min; active = over 0.2 and 3.5 SD of the protein, either way, in both replicates (recomputed)
[1] = compound: NC(=O)Nc1cc(-c2cccc(F)c2)sc1C(=O)N[C@H]1CCCNC1
Outline: (§1)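 For each measurement, 10 μM compound was applied for 30 min to K562 cells at 2×10^6 cells/mL. Aliquots were heated for 3 min across 48°C-58°C, pooled, and extracted in PBS with 0.5% NP-40 at 4°C; the supernatant after 21,000xg for 90 min was soluble protein. This was quantified by TMTpro 16plex LC-MS/MS with channel sums equalised, and thermal stability was reported relative to control samples from duplicates, on a log2 fold-change scale.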

Sequences of proteins named here, by UniProt entry; tags and fusion partners are left off. A change or cut given only in a name is not applied to a line headed by its entry.
UniProt Q9H299: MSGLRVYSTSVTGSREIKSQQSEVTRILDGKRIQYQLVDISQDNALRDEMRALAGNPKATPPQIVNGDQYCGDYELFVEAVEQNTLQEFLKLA
UniProt Q8IZQ5, whole entry, looked up: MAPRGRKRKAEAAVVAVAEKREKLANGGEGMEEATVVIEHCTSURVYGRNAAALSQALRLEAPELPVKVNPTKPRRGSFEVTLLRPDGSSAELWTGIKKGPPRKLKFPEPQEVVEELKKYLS
UniProt Q9BQE4, whole entry, looked up: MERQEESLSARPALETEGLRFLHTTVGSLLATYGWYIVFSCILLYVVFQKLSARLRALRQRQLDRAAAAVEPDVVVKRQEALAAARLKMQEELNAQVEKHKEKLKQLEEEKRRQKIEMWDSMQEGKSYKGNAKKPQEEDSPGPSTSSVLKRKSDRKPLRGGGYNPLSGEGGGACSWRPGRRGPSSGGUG
UniProt P49903: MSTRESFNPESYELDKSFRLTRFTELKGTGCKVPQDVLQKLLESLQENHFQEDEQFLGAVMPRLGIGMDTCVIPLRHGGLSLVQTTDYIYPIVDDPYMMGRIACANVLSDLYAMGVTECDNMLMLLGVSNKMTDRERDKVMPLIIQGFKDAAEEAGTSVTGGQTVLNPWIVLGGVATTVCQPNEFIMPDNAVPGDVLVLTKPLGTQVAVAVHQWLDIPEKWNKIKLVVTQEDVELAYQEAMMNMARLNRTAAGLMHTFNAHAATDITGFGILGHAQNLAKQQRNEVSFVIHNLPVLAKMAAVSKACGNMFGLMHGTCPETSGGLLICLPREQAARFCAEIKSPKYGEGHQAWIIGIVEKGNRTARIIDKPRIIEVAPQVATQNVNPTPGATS
UniProt P60468, whole entry, looked up: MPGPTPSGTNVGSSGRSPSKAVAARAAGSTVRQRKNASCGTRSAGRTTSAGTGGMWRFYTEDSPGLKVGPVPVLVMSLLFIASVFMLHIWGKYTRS
UniProt Q15427: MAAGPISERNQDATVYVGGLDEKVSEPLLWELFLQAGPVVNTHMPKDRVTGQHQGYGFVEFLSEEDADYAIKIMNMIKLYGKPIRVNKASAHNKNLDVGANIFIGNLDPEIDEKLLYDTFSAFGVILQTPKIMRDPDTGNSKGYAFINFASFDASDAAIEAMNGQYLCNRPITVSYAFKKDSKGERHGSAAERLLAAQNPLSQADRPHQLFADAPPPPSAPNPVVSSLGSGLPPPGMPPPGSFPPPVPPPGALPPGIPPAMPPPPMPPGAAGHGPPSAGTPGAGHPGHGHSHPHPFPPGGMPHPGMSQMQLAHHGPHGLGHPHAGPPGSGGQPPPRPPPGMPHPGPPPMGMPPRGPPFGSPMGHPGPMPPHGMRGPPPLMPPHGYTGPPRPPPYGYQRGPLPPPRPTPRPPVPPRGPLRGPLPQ
UniProt Q7L8J4: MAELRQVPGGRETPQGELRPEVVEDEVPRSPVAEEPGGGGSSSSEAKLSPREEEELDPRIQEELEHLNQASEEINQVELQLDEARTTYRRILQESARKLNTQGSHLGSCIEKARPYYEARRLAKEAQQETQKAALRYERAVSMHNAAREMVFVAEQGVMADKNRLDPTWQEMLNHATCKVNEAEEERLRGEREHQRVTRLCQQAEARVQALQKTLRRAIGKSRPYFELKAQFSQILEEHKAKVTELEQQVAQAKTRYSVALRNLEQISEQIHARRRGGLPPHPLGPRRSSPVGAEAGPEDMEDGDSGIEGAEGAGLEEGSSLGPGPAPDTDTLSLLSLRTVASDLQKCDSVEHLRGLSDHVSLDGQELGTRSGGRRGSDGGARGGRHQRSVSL
UniProt Q15393: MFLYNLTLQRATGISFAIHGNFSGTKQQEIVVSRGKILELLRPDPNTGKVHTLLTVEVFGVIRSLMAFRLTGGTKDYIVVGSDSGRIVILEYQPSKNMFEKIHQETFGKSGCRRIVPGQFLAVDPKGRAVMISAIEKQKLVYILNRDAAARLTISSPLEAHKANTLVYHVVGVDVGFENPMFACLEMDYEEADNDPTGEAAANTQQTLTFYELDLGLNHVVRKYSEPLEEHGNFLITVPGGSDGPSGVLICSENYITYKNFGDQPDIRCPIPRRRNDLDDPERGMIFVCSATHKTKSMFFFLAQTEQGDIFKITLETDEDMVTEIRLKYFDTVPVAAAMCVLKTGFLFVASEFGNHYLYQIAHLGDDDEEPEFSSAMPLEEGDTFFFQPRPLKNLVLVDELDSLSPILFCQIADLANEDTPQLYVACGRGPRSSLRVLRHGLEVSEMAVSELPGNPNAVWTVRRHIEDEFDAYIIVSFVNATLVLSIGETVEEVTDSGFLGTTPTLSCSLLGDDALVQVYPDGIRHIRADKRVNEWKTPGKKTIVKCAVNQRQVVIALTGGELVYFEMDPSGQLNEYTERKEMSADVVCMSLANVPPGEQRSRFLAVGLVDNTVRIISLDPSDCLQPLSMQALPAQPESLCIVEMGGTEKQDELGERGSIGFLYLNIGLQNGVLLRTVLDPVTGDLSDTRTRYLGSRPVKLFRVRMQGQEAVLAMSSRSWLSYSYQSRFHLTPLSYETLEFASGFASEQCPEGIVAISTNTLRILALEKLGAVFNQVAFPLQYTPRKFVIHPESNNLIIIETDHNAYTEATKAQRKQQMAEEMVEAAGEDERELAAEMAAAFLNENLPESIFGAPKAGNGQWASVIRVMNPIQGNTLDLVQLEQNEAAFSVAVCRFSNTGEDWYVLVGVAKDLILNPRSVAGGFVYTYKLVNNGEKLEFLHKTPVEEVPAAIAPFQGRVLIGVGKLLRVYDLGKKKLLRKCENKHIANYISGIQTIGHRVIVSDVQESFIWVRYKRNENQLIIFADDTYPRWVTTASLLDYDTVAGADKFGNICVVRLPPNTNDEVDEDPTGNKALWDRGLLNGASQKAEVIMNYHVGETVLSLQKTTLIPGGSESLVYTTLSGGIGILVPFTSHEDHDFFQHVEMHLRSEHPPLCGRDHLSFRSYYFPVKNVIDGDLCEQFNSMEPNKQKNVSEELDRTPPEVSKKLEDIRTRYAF
UniProt Q8NC51: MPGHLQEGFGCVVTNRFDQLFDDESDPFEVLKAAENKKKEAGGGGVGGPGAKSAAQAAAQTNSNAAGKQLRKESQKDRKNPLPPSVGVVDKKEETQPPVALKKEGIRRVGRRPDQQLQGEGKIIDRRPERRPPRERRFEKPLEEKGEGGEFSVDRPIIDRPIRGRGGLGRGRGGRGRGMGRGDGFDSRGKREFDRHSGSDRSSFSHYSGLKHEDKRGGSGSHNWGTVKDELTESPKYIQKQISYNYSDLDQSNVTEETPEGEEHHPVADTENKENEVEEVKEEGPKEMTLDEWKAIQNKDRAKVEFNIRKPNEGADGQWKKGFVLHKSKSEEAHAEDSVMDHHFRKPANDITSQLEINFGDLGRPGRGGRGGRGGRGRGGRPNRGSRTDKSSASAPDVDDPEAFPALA
UniProt Q99574: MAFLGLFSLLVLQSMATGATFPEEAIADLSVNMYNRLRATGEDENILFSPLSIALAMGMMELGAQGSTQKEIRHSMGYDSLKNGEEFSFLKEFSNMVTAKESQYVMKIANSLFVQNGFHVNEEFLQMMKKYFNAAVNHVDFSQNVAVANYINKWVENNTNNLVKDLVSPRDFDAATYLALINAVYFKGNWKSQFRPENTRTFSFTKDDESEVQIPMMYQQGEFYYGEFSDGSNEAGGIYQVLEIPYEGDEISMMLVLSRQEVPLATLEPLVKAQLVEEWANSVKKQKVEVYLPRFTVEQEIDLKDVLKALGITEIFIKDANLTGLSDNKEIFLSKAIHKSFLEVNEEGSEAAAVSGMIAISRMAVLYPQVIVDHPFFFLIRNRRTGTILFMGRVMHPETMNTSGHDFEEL
UniProt Q13530: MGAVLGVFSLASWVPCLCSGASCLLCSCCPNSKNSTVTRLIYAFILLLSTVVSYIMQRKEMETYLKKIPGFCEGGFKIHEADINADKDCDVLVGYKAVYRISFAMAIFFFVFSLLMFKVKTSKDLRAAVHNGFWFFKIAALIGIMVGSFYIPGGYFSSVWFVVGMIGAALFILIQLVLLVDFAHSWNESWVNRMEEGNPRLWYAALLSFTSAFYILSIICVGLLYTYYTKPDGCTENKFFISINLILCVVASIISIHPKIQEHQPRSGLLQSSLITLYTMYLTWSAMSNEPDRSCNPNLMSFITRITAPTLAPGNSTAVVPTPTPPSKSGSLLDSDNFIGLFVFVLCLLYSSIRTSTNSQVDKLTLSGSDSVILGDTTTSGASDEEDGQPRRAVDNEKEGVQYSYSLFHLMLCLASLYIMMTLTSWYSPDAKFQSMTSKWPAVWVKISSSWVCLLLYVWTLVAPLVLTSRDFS
UniProt P29353: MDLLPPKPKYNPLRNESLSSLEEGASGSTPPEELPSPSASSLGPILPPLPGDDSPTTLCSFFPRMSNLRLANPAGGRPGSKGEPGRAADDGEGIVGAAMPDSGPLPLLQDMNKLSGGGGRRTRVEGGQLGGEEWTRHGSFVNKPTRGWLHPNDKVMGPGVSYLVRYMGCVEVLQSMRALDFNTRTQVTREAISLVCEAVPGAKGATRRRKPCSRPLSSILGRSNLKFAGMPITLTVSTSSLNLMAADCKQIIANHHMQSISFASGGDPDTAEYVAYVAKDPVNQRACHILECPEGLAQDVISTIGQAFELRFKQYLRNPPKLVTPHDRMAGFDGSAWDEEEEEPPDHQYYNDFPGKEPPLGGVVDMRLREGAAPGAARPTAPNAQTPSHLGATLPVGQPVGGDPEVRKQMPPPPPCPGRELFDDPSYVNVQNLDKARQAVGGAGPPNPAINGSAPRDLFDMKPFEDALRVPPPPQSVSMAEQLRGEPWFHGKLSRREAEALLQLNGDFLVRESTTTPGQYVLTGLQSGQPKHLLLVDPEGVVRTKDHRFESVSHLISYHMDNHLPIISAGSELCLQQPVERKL
UniProt Q8NEM2: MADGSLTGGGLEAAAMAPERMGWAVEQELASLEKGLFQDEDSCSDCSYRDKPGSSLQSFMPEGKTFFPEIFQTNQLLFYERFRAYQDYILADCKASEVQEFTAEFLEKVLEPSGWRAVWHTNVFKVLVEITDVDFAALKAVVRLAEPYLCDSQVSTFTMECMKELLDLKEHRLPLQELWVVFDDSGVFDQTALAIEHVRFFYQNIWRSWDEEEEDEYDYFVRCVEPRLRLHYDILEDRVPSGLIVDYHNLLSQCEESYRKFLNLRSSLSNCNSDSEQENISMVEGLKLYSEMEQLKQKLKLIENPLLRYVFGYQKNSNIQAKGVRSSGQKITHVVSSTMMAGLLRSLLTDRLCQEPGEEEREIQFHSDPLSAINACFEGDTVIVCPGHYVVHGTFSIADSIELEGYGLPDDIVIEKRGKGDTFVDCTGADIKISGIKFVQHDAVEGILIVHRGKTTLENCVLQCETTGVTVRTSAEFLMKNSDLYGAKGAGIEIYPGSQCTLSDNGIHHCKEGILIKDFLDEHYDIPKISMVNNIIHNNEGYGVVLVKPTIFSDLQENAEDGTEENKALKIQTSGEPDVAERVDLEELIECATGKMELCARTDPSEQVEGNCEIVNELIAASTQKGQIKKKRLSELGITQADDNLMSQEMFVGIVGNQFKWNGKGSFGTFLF
UniProt P62341, whole entry, looked up: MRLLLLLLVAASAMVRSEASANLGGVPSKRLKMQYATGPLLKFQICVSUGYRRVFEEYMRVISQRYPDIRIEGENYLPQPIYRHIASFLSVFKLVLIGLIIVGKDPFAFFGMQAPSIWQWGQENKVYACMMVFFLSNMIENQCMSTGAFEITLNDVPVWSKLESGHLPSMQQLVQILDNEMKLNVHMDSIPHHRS
UniProt Q9BX95: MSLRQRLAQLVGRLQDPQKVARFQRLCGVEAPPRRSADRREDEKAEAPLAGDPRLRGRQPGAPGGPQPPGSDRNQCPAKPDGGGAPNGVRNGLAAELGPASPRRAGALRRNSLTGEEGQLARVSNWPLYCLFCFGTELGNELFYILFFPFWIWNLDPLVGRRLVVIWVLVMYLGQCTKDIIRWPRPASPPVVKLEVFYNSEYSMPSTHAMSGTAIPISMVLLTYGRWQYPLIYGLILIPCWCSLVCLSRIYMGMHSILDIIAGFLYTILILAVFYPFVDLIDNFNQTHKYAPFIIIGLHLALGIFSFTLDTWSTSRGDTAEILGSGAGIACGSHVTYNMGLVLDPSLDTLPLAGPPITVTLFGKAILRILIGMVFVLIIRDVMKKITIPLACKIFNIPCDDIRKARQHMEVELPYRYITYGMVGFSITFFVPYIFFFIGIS
UniProt P01008, whole entry, looked up: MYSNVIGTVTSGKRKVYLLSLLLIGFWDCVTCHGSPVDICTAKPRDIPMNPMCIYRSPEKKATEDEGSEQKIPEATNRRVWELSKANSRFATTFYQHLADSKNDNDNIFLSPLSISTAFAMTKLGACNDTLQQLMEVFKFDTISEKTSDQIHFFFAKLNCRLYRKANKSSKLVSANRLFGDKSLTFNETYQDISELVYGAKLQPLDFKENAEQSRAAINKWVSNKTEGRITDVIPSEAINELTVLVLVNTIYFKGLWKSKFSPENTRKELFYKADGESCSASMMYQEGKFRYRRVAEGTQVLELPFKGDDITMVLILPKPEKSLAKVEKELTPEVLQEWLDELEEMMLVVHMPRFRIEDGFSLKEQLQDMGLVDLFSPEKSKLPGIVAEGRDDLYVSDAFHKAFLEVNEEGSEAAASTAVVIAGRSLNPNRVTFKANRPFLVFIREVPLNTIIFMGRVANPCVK

[2] = compound: NC(=O)c1cnc(N[C@@H]2CCCC[C@@H]2N)nc1Nc1cccc(-n2nccn2)c1
Outline: as §1

[3] = compound: NC1(c2ccc(-c3nc4ccn5c(=O)[nH]nc5c4cc3-c3ccccc3)cc2)CCC1
Outline: as §1

[4] = compound: NCC(=O)Nc1ccc(-n2nc(C(F)(F)F)cc2-c2ccc3c(ccc4ccccc43)c2)cc1
Outline: as §1

entinostat = compound: Nc1ccccc1NC(=O)c1ccc(CNC(=O)OCc2cccnc2)cc1 [entinostat]
Outline: as §1

vorinostat = compound: O=C(CCCCCCC(=O)Nc1ccccc1)NO [vorinostat]
Outline: as §1

citarinostat = compound: O=C(CCCCCCNC(=O)c1cnc(N(c2ccccc2)c2ccccc2Cl)nc1)NO [citarinostat]
Outline: as §1

silmitasertib = compound: O=C(O)c1ccc2c(c1)nc(Nc1cccc(Cl)c1)c1ccncc12 [silmitasertib]
Outline: as §1

[5] = compound: O=C1NC(=O)C(c2cnc3ccccn23)=C1c1cn2c3c(cc(F)cc13)CN(C(=O)N1CCCCC1)CC2
Outline: as §1

[6] = compound: c1cc(OCCN2CCCCC2)cc(-c2n[nH]c3ccc(-c4nnc[nH]4)cc23)c1
Outline: as §1

Measured: log2 fold change

SH3BGRL3 (UniProt Q9H299)
inactive: [1] -0.028 | [2] -0.062 | [3] 0.002 | [4] 0.051 | entinostat 0 | vorinostat -0.05 | citarinostat -0.003 | silmitasertib -0.036 | [5] -0.064 | [6] -0.027

SETDB1 (UniProt Q15047)
inactive: [1] 0.075 | [2] -0.066 | [3] -0.137 | [4] -0.033 | entinostat -0.011 | vorinostat 0.073 | citarinostat -0.017 | silmitasertib -0.07 | [5] -0.37 | [6] 0.02

SH2D1B (UniProt O14796)
active: [1] -1.1
inactive: [2] 0.04 | [3] -0.135 | [4] -0.024 | entinostat 0.055 | vorinostat 0.101 | citarinostat 0.413 | silmitasertib -0.111 | [5] -0.018 | [6] -0.062

SELENOH (UniProt Q8IZQ5)
inactive: [1] 0.227 | [2] 0.194 | [3] 0.011 | [4] 0.049 | entinostat 0.066 | vorinostat -0.007 | citarinostat 0.067 | silmitasertib 0.011 | [5] 0.038 | [6] 0.053

SELENOS (UniProt Q9BQE4)
inactive: [1] 0.047 | [2] -0.068 | [3] -0.004 | [4] -0.007 | entinostat -0.014 | vorinostat 0.007 | citarinostat 0.011 | silmitasertib 0.016 | [5] -0.122 | [6] -0.018

SEPHS1 (UniProt P49903)
inactive: [1] 0.071 | [2] 0.015 | [3] 0.006 | [4] -0.006 | entinostat 0.018 | vorinostat -0.014 | citarinostat 0.06 | silmitasertib -0.017 | [5] 0.08 | [6] -0.01

SEPTIN5 (UniProt Q99719)
inactive: [1] -0.005 | [2] -0.012 | [3] -0.011 | [4] -0.004 | entinostat -0.017 | vorinostat -0.001 | citarinostat 0.059 | silmitasertib -0.038 | [5] -0.013 | [6] -0.021

SEPTIN8 (UniProt Q92599)
inactive: [1] 0.018 | [2] -0.021 | [3] -0.026 | [4] 0.015 | entinostat -0.029 | vorinostat 0.008 | citarinostat 0.023 | silmitasertib -0.047 | [5] 0.003 | [6] -0.013

SGTB (UniProt Q96EQ0)
inactive: [1] -0.012 | [2] -0.084 | [3] -0.04 | [4] -0.021 | entinostat 0.005 | vorinostat 0.072 | citarinostat 0.013 | silmitasertib 0.101 | [5] 0.006 | [6] -0.041

SEC61B (UniProt P60468)
inactive: [1] -0.069 | [2] -0.023 | [3] 0.036 | [4] -0.044 | entinostat 0.022 | vorinostat -0.048 | citarinostat 0.007 | silmitasertib 0.011 | [5] 0.032 | [6] -0.088

SF3B4 (UniProt Q15427)
inactive: [1] -0.035 | [2] -0.068 | [3] 0.088 | [4] 0.002 | entinostat -0.029 | vorinostat 0.097 | citarinostat 0.031 | silmitasertib 0.098 | [5] 0.247 | [6] -0.188

SH3BP5L (UniProt Q7L8J4)
inactive: [1] -0.141 | [2] -0.11 | [3] -0.084 | [4] -0.065 | entinostat 0.057 | vorinostat -0.021 | citarinostat 0.054 | silmitasertib 0.053 | [5] -0.034 | [6] -0.077

SETMAR (UniProt Q53H47)
inactive: [1] 0.11 | [2] -0.024 | [3] 0.05 | [4] -0.078 | entinostat -0.032 | vorinostat 0.004 | silmitasertib -0.064 | [5] -0.105 | [6] -0.255
active: citarinostat -0.629

SIRT1 (UniProt Q96EB6)
inactive: [1] -0.044 | [2] -0.011 | [3] -0.013 | [4] -0.075 | entinostat 0.033 | vorinostat 0.001 | citarinostat 0.012 | silmitasertib 0.066 | [5] -0.068 | [6] -0.011

SIRT2 (UniProt Q8IXJ6)
inactive: [1] -0.048 | [2] 0.023 | [3] -0.07 | [4] -0.066 | entinostat -0.02 | vorinostat -0.039 | citarinostat -0.022 | silmitasertib -0.035 | [5] -0.035 | [6] 0.033

SF3B3 (UniProt Q15393)
inactive: [1] -0.037 | [2] -0.048 | [3] -0.014 | [4] -0.03 | entinostat -0.012 | vorinostat -0.003 | citarinostat 0.012 | silmitasertib 0.053 | [5] 0.047 | [6] -0.074

SFXN4 (UniProt Q6P4A7)
inactive: [1] -0.013 | [2] -0.068 | [3] -0.029 | [4] -0.041 | entinostat -0.001 | vorinostat 0.07 | citarinostat 0.042 | silmitasertib 0.023 | [5] -0.026 | [6] -0.056

SERBP1 (UniProt Q8NC51)
inactive: [1] -0.006 | [2] -0.045 | [3] 0.207 | [4] 0.026 | entinostat -0.053 | vorinostat -0.069 | citarinostat -0.07 | silmitasertib 0.066 | [5] 0.073 | [6] -0.108

SERPINI1 (UniProt Q99574)
inactive: [1] 0.044 | [2] -0.026 | [3] 0 | [4] 0.17 | entinostat -0.047 | vorinostat -0.131 | citarinostat 0.022 | silmitasertib 0.036 | [5] -0.09 | [6] -0.146

SERINC3 (UniProt Q13530)
inactive: [1] -0.111 | [2] -0.027 | [3] -0.195 | [4] -0.267 | entinostat -0.07 | vorinostat -0.044 | citarinostat -0.093 | silmitasertib 0.054 | [5] 0.018 | [6] -0.031

SHC1 isoform 6 (UniProt P29353)
inactive: [1] -0.024 | [2] -0.026 | [3] 0.022 | [4] -0.008 | entinostat -0.017 | vorinostat 0.035 | citarinostat 0.019 | silmitasertib -0.011 | [5] -0.034 | [6] -0.08

SHCBP1 (UniProt Q8NEM2)
inactive: [1] 0.01 | [2] -0.017 | [3] -0.107 | [4] -0.08 | entinostat -0.063 | vorinostat 0.039 | citarinostat 0.136 | silmitasertib 0.025 | [5] -0.087 | [6] -0.091

SIDT2 isoform 2 (UniProt Q8NBJ9)
inactive: [1] 0.057 | [2] -0.01 | [3] -0.086 | [4] 0.297 | entinostat -0.064 | vorinostat -0.107 | citarinostat 0.002 | silmitasertib -0.067 | [5] 0.029 | [6] 0.108

SELENBP1 isoform 4 (UniProt Q13228)
inactive: [1] 0.078 | [2] 0.051 | [3] 0.015 | [4] 0.079 | entinostat -0.006 | vorinostat 0.019 | citarinostat 0.039 | silmitasertib -0.027 | [5] 0.008 | [6] 0.012

SERPINB8 (UniProt P50452)
inactive: [1] -0.007 | [2] 0.09 | [3] 0.014 | [4] 0.043 | entinostat 0.033 | vorinostat -0.064 | citarinostat 0 | silmitasertib 0.02 | [5] 0.011 | [6] 0.024

SELENOT (UniProt P62341)
inactive: [1] 0.077 | [2] 0.011 | [3] -0.141 | [4] -0.036 | entinostat 0.041 | vorinostat 0.113 | citarinostat -0.117 | silmitasertib -0.007 | [5] 0.04 | [6] -0.186

SGPP1 (UniProt Q9BX95)
inactive: [1] -0.032 | [2] -0.002 | [3] -0.113 | [4] -0.055 | entinostat -0.015 | vorinostat 0.015 | citarinostat -0.177 | silmitasertib 0.186 | [5] -0.048 | [6] 0.049

Looked up one by one from the list above (2):
SGPP1 (UniProt Q9BX95)
inactive: [1] -0.032 | [2] -0.002 | [3] -0.113 | [4] -0.055 | entinostat -0.015 | vorinostat 0.015 | citarinostat -0.177 | silmitasertib 0.186 | [5] -0.048 | [6] 0.049

SIDT2 isoform 2 (UniProt Q8NBJ9)
inactive: [1] 0.057 | [2] -0.01 | [3] -0.086 | [4] 0.297 | entinostat -0.064 | vorinostat -0.107 | citarinostat 0.002 | silmitasertib -0.067 | [5] 0.029 | [6] 0.108

Remaining list, next part.

SF3B2 (UniProt Q13435)
inactive: [1] 0.025 | [2] 0.004 | [3] 0.097 | [4] -0.003 | entinostat 0.027 | vorinostat 0.017 | citarinostat 0.014 | silmitasertib 0.074 | [5] 0.052 | [6] -0.1

SERPINC1 (UniProt P01008)
inactive: [1] -0.114 | [2] 0.098 | [3] 0.124 | [4] 0.026 | entinostat -0.008 | vorinostat 0.049 | citarinostat 0.018 | silmitasertib 0.067 | [5] 0.123 | [6] 0.396
